# The list shows a part of the results.
# Protein sequences, listed by entry. Tags and fused reporters are not part of them. Lines headed by an entry give the natural chain unless they say otherwise; changes in a name come on top.
# UniProt Q8IXQ4: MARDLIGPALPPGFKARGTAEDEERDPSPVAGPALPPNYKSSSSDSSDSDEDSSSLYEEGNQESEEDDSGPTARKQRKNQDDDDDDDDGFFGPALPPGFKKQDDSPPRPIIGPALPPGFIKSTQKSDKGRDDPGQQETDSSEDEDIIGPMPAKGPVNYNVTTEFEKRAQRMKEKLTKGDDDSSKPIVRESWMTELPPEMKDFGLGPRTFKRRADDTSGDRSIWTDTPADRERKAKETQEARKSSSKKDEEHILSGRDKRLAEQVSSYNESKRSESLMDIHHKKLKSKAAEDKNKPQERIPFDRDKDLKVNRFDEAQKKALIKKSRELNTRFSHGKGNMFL
# UniProt P19440: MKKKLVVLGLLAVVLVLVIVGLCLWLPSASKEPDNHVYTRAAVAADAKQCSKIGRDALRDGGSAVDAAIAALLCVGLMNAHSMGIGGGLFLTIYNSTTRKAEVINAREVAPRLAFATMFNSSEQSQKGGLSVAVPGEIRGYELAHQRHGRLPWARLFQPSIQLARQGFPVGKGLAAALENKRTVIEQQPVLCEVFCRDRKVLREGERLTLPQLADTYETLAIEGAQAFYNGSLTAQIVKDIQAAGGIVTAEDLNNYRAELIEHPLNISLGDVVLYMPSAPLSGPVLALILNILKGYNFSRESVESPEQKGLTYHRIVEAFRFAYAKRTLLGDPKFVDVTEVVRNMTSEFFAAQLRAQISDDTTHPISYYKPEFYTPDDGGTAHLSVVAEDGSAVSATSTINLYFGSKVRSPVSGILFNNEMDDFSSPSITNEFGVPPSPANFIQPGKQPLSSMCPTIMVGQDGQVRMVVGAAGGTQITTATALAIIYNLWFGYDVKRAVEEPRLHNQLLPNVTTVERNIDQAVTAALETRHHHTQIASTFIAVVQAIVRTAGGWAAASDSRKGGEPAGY
# UniProt Q9NPB8: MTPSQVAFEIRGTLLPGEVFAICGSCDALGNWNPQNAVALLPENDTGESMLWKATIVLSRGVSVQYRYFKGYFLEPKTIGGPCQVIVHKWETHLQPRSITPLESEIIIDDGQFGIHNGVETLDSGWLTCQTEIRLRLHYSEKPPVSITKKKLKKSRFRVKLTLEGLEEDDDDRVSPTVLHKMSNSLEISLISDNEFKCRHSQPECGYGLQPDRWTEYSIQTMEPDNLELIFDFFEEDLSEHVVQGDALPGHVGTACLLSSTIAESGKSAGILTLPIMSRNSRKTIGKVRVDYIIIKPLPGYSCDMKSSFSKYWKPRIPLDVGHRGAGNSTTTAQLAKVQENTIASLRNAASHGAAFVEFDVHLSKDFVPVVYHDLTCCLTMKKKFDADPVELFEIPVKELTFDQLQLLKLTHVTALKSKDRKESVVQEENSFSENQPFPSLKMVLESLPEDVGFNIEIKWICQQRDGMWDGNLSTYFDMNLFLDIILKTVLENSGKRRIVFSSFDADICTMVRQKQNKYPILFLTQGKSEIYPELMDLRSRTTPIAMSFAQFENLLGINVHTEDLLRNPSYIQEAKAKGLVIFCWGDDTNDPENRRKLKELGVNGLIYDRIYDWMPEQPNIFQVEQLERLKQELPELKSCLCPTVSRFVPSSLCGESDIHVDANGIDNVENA
# UniProt P62873, whole entry, looked up: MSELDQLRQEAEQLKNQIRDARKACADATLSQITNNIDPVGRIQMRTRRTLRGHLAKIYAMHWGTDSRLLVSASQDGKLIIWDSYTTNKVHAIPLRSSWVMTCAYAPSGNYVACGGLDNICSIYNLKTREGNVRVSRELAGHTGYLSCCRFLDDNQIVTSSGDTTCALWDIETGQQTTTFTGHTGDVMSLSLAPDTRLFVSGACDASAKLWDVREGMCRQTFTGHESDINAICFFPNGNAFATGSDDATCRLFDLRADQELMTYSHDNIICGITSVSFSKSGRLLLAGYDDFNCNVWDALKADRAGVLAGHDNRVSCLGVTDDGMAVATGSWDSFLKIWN
# UniProt Q9Y223: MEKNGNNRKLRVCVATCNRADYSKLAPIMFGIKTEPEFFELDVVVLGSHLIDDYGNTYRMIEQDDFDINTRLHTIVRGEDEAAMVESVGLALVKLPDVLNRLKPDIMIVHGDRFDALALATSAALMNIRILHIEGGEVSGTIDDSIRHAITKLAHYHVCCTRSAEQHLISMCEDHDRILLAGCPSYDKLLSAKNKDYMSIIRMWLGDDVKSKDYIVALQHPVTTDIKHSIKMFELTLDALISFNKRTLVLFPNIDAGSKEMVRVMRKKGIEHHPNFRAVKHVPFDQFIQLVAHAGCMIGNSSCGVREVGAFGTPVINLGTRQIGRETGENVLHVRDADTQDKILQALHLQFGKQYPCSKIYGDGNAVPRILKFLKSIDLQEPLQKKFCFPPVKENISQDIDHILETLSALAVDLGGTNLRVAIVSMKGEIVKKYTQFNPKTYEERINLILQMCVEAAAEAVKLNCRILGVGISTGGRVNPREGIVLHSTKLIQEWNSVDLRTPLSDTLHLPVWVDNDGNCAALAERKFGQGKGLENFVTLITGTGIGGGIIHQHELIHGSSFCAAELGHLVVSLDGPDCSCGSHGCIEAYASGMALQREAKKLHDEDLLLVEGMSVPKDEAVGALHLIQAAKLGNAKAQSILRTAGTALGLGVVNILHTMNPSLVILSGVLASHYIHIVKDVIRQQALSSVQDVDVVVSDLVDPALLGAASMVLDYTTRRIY
# UniProt Q7Z2K8: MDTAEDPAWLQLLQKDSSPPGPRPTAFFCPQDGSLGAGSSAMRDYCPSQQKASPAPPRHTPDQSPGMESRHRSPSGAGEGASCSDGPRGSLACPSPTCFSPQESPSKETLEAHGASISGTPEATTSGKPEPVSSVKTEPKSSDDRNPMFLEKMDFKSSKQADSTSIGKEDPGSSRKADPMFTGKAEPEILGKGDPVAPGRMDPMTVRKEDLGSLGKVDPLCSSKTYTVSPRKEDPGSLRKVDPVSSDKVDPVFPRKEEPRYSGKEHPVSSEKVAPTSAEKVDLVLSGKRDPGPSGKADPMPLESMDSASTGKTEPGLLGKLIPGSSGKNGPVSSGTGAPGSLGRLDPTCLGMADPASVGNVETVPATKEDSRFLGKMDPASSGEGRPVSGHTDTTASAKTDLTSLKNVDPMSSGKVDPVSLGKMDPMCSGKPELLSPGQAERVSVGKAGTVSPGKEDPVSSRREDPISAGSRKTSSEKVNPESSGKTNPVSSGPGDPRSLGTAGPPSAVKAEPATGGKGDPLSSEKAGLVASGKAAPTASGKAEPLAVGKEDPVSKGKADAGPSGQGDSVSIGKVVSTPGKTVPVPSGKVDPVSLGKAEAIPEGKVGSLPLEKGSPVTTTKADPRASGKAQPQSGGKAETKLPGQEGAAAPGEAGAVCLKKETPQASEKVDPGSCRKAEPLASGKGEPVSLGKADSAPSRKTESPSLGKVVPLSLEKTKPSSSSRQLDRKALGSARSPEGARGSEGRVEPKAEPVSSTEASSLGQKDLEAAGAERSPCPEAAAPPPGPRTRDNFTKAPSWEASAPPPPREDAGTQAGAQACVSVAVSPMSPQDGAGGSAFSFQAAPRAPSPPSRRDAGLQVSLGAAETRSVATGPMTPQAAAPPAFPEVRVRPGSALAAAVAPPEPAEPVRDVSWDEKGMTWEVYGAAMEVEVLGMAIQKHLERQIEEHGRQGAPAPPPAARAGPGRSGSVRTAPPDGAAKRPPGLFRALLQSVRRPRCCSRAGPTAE
# UniProt Q9H3K2: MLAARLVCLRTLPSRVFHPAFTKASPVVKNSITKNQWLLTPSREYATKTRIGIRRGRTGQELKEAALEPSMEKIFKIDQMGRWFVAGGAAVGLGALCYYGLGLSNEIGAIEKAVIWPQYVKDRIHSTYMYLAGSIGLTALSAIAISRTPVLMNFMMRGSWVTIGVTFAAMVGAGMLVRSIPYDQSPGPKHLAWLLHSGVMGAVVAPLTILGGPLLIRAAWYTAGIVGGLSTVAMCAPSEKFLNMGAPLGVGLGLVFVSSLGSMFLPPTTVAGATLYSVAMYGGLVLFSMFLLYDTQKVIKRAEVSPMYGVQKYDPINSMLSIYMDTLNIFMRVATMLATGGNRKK
# UniProt Q9BVM4: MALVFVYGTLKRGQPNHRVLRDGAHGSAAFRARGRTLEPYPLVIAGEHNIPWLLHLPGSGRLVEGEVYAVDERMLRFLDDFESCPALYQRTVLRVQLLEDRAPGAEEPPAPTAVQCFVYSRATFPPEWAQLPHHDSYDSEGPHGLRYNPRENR
# UniProt P13224: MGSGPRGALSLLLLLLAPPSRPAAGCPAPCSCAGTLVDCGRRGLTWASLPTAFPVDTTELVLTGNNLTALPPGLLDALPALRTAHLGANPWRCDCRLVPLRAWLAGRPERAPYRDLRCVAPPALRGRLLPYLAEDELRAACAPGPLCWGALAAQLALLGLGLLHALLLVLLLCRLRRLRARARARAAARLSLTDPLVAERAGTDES
# UniProt Q92896: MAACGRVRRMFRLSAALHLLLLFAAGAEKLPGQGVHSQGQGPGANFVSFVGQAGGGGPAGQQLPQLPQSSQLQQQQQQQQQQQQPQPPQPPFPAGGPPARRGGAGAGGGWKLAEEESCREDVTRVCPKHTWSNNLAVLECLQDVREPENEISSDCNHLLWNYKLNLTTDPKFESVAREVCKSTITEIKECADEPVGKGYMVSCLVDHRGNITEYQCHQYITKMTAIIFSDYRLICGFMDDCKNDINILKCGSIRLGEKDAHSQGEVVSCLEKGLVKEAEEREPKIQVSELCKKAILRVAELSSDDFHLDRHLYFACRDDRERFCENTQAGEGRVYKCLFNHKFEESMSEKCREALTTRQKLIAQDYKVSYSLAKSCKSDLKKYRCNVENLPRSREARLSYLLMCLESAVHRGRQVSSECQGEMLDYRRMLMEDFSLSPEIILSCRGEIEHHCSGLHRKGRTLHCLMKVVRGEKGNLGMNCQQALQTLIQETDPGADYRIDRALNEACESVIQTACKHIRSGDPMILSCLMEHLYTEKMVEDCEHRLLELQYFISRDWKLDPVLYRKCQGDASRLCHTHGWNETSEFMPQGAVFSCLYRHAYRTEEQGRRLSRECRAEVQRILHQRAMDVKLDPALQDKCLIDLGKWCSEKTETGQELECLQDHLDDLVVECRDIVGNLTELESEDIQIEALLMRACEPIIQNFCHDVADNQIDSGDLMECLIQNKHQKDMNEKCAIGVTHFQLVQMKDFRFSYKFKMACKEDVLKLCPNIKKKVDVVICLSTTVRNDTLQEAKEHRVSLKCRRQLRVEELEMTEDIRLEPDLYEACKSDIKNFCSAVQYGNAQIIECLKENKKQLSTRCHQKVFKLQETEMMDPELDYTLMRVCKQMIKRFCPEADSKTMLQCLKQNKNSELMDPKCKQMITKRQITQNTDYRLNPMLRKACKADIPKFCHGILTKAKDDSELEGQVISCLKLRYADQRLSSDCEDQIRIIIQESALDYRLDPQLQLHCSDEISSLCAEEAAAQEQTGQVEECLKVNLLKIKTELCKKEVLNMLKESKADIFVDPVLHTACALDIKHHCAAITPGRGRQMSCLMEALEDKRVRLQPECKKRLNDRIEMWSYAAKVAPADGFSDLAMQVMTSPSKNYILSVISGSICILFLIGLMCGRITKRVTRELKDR
# UniProt Q04760: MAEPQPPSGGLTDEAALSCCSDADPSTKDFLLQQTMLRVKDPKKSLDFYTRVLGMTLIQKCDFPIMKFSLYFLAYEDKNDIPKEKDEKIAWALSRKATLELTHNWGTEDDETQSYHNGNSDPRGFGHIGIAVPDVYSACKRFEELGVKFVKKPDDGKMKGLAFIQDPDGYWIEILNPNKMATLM
# UniProt Q9NZD2: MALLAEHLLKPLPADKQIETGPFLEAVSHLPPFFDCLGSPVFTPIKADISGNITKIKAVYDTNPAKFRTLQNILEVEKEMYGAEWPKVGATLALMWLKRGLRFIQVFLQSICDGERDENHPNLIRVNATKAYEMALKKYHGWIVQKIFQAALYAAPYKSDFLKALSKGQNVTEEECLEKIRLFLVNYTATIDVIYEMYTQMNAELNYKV
# UniProt P04899, whole entry, looked up: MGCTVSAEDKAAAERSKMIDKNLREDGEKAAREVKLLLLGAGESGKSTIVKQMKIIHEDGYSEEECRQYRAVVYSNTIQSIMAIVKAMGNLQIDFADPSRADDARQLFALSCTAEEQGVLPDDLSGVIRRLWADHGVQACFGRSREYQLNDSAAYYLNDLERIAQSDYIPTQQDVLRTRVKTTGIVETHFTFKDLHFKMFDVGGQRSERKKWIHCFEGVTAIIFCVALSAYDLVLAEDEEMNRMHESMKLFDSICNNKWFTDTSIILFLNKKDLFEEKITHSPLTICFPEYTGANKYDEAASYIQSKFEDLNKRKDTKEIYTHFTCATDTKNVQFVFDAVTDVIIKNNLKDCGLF
# UniProt Q9BRT9, whole entry, looked up: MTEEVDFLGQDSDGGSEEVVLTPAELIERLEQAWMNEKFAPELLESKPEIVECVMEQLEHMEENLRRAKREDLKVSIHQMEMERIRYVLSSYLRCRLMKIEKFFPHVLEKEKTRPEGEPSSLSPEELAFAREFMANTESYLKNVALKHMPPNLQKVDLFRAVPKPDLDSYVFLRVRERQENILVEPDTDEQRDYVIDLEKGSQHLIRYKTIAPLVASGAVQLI
# How the values were obtained:
# Assay in all cases: log2 fold change, soluble protein after heating vs DMSO (PISA); higher = thermal stabilisation; K562 lysate, 10 uM; active = over 0.2 and 3.5 SD of the protein, either way, in both replicates (recomputed)
# [1] = compound: CCCS(=O)(=O)Nc1ccc(F)c(C(=O)c2c[nH]c3ncc(-c4ccc(Cl)cc4)cc23)c1F [vemurafenib]
# Outline: (§1)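 Thermal stability, expressed as log-two fold change relative to solvent controls, is given from duplicates. Crude K562 extract in PBS pH 7.4 with 1 mM MgCl2, at 1 mg/mL protein, was treated with 10 μM compound for 30 min and heated in aliquots for 3 min across 48°C-58°C. After pooling, adjustment to 0.5% NP-40 at 4°C and centrifugation at 21,000xg for 90 min, supernatant protein was measured by TMTpro 16plex LC-MS/MS with channel sums equalised.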
# [2] = compound: CCCS(=O)(=O)Nc1ccc(F)c(C(=O)c2c[nH]c3ncc(Cl)cc23)c1F
# Outline: as §1
# [3] = compound: CCN(CCCOc1ccc2c(Nc3cc(CC(=O)Nc4cccc(F)c4)[nH]n3)ncnc2c1)CCOP(=O)(O)O [barasertib]
# Outline: as §1
# [4] = compound: CC[C@@H]1C(=O)N(C)c2cnc(Nc3ccc(C(=O)NC4CCN(C)CC4)cc3OC)nc2N1C1CCCC1
# Outline: as §1
# [5] = compound: CC[C@@H]1C(=O)N(C)c2cnc(Nc3ccc(C(=O)N[C@H]4CC[C@H](N5CCN(CC6CC6)CC5)CC4)cc3OC)nc2N1C(C)C [volasertib]
# Outline: as §1
# [6] = compound: CCn1c(C(=O)N(C2CC2)C2CC2)cc2c3c(ncn3C)c(Nc3cc(C)n(C)n3)nc21
# Outline: as §1
# [7] = compound: CCn1cc(-c2ccnc3[nH]c(-c4cccc(CN(C)C)c4)cc23)c(-c2ccc(NC(=O)N(C)C)cc2)n1
# Outline: as §1
# [8] = compound: CN1CCC(CNc2ccc3ncc(-c4cccc(OC(F)(F)F)c4)n3n2)CC1
# Outline: as §1
# [9] = compound: CN1CCN(CCOc2cc(OC3CCOCC3)c3c(Nc4c(Cl)ccc5c4OCO5)ncnc3c2)CC1 [saracatinib]
# Outline: as §1
# [10] = compound: CN1CCN(c2nc(C3=C(c4c[nH]c5ccccc45)C(=O)NC3=O)c3ccccc3n2)CC1 [sotrastaurin]
# Outline: as §1
Target,log2 fold change [1],log2 fold change [2],log2 fold change [3],log2 fold change [4],log2 fold change [5],log2 fold change [6],log2 fold change [7],log2 fold change [8],log2 fold change [9],log2 fold change [10]
GLUD1 (UniProt P00367),inactive: 0.003,inactive: -0.011,inactive: -0.016,inactive: -0.009,inactive: -0.177,inactive: 0.004,inactive: -0.019,inactive: 0.024,inactive: 0.065,inactive: 0.017
GPALPP1 (UniProt Q8IXQ4),inactive: 0.008,inactive: -0.004,inactive: -0.029,inactive: 0.082,inactive: 0.005,inactive: -0.02,inactive: 0.228,inactive: 0.03,inactive: 0.024,inactive: -0.047
GMPPB isoform 2 (UniProt Q9Y5P6),inactive: 0.018,inactive: 0.053,inactive: 0.005,inactive: -0.038,inactive: -0.024,inactive: -0.038,inactive: -0.051,inactive: 0.018,inactive: 0.009,inactive: -0.008
GOLIM4 (UniProt O00461),inactive: 0.026,inactive: 0.013,inactive: 0.012,inactive: 0.026,inactive: 0.004,inactive: -0.051,inactive: 0.116,inactive: -0.155,inactive: 0.018,inactive: 0.01
GGT1 (UniProt P19440),inactive: 0.001,inactive: -0.01,inactive: -0.007,inactive: 0.062,inactive: 0.042,inactive: 0.066,inactive: -0.038,inactive: -0.01,inactive: 0.016,inactive: 0.005
GPCPD1 (UniProt Q9NPB8),inactive: 0.023,inactive: 0.038,inactive: 0.013,inactive: -0.05,inactive: -0.048,inactive: 0,inactive: -0.046,inactive: -0.016,inactive: 0,inactive: -0.014
GNB1 (UniProt P62873),inactive: -0.048,inactive: 0.124,inactive: -0.016,inactive: -0.081,inactive: 0.008,inactive: -0.037,inactive: -0.072,inactive: 0.05,inactive: -0.038,active: -0.287
GNE isoform 2 (UniProt Q9Y223),inactive: 0.024,inactive: 0.027,inactive: 0.03,inactive: -0.107,inactive: -0.095,inactive: 0.039,inactive: 0.008,inactive: -0.053,inactive: -0.003,inactive: -0.029
GPR107 isoform 2 (UniProt Q5VW38),inactive: -0.025,inactive: 0.02,inactive: -0.004,inactive: 0.064,inactive: 0.03,inactive: -0.037,inactive: -0.067,inactive: 0.053,inactive: -0.005,inactive: 0.039
GOLGA5 (UniProt Q8TBA6),inactive: 0.028,inactive: -0.035,inactive: 0.079,inactive: -0.012,inactive: 0.003,inactive: 0.031,inactive: 0.021,inactive: 0.008,inactive: 0.039,inactive: 0.005
GPA33 (UniProt Q99795),inactive: -0.038,inactive: -0.014,inactive: -0.047,inactive: -0.011,inactive: 0.081,inactive: -0.032,active: -0.925,active: 0.612,inactive: -0.005,
GPRIN1 (UniProt Q7Z2K8),inactive: 0.006,inactive: -0.017,inactive: 0.038,inactive: 0.064,inactive: -0.035,inactive: 0.002,inactive: 0.103,inactive: 0.009,inactive: 0.011,inactive: 0.014
GHITM (UniProt Q9H3K2),inactive: -0.006,inactive: 0.038,inactive: 0.015,inactive: 0.04,inactive: 0.049,inactive: -0.011,inactive: 0.008,inactive: 0.004,inactive: -0.004,inactive: -0.015
GPS1 (UniProt A8K070),inactive: -0.1,inactive: 0.006,inactive: 0.042,inactive: 0.004,inactive: -0.026,inactive: 0.015,inactive: 0.079,inactive: 0.008,inactive: 0.034,inactive: -0.004
GM2A (UniProt P17900),inactive: 0.085,inactive: -0.035,inactive: 0.369,inactive: 0.023,inactive: 0.058,inactive: 0.057,inactive: -0.047,inactive: -0.024,inactive: -0.057,inactive: 0.042
GNL3L (UniProt Q9NVN8),inactive: -0.032,inactive: -0.225,inactive: -0.068,inactive: 0.114,inactive: 0.104,inactive: 0.003,inactive: 0.008,inactive: -0.015,inactive: -0.037,inactive: 0.065
GGACT (UniProt Q9BVM4),inactive: 0.08,inactive: 0.035,inactive: -0.078,inactive: -0.024,inactive: 0.064,inactive: -0.032,inactive: -0.152,inactive: 0.01,inactive: 0.025,inactive: -0.095
GIT1 (UniProt Q9Y2X7),inactive: -0.073,inactive: 0.028,inactive: -0.008,inactive: -0.044,inactive: -0.043,inactive: -0.007,inactive: 0.132,inactive: 0.046,inactive: 0,inactive: 0.012
GP1BB isoform 2 (UniProt P13224),inactive: -0.014,inactive: -0.009,inactive: 0.018,inactive: -0.045,inactive: -0.002,inactive: 0.01,inactive: -0.002,inactive: 0.023,inactive: -0.044,inactive: -0.026
GLUD2 (UniProt P49448),inactive: 0.177,inactive: -0.042,inactive: -0.069,inactive: 0.02,inactive: -0.145,inactive: -0.031,inactive: -0.024,inactive: 0.046,inactive: 0.007,inactive: -0.039
GLG1 isoform 2 (UniProt Q92896),inactive: -0.029,inactive: -0.006,inactive: -0.005,inactive: 0.053,inactive: 0.022,inactive: 0.013,inactive: -0.011,inactive: 0.007,inactive: 0.003,inactive: 0.075
GPD1L (UniProt Q8N335),inactive: -0.036,inactive: 0.027,inactive: 0.034,inactive: -0.097,inactive: -0.022,inactive: 0.025,inactive: -0.009,inactive: -0.051,inactive: 0.017,inactive: -0.01
GLO1 (UniProt Q04760),inactive: -0.031,inactive: -0.015,inactive: -0.018,inactive: -0.008,inactive: 0.01,inactive: -0.016,inactive: -0.085,inactive: 0.037,inactive: 0,inactive: -0.031
GMPPA (UniProt Q96IJ6),inactive: -0.004,inactive: 0.043,inactive: 0.004,inactive: -0.078,inactive: -0.051,inactive: -0.011,inactive: -0.125,inactive: 0.04,inactive: -0.019,inactive: -0.007
GLTP (UniProt Q9NZD2),inactive: 0.028,inactive: -0.039,inactive: 0.165,inactive: 0.129,inactive: 0.065,inactive: 0.067,inactive: 0.097,inactive: -0.245,inactive: 0.039,inactive: 0.095
GPBP1L1 (UniProt Q9HC44),inactive: -0.021,inactive: 0.106,inactive: -0.012,inactive: 0.087,inactive: -0.094,inactive: -0.031,inactive: -0.058,inactive: 0.048,inactive: 0.045,inactive: -0.064
GLB1L2 (UniProt Q8IW92),inactive: -0.003,inactive: 0.007,inactive: 0.084,inactive: 0.018,inactive: 0.055,inactive: 0.012,inactive: -0.093,inactive: 0.07,inactive: -0.028,inactive: 0.021
GNAI2 (UniProt P04899),inactive: -0.044,inactive: 0.009,inactive: 0.021,inactive: -0.029,inactive: -0.033,inactive: 0.007,inactive: 0.028,inactive: -0.019,inactive: -0.013,inactive: -0.033
GOLGA7 (UniProt Q7Z5G4),inactive: -0.111,inactive: 0.023,inactive: 0.036,inactive: -0.001,inactive: 0.025,inactive: -0.033,inactive: 0.009,inactive: 0.013,inactive: 0.031,inactive: -0.05
GINS4 (UniProt Q9BRT9),inactive: -0.008,inactive: 0.03,inactive: 0.017,inactive: 0.027,inactive: 0.002,inactive: -0.003,inactive: -0.012,inactive: 0.054,inactive: -0.004,inactive: -0.004

# Record cards (already shown). Order of values: log2 fold change [1]	log2 fold change [2]	log2 fold change [3]	log2 fold change [4]	log2 fold change [5]	log2 fold change [6]	log2 fold change [7]	log2 fold change [8]	log2 fold change [9]	log2 fold change [10]
# GPBP1L1 (UniProt Q9HC44) is listed with inactive: -0.021	inactive: 0.106	inactive: -0.012	inactive: 0.087	inactive: -0.094	inactive: -0.031	inactive: -0.058	inactive: 0.048	inactive: 0.045	inactive: -0.064
# GLTP (UniProt Q9NZD2) is listed with inactive: 0.028	inactive: -0.039	inactive: 0.165	inactive: 0.129	inactive: 0.065	inactive: 0.067	inactive: 0.097	inactive: -0.245	inactive: 0.039	inactive: 0.095

# From the supplement of paper PMC10849652
